# Test results from PubChem BioAssay AID1671190 (National Center for Advancing Translational Sciences (NCATS), 2021).
# By UniProt entry, the sequences of proteins in these tests, tags left out. Where a name states a change or a piece, a line headed by the entry shows the natural chain unless it says otherwise.
# UniProt P18054: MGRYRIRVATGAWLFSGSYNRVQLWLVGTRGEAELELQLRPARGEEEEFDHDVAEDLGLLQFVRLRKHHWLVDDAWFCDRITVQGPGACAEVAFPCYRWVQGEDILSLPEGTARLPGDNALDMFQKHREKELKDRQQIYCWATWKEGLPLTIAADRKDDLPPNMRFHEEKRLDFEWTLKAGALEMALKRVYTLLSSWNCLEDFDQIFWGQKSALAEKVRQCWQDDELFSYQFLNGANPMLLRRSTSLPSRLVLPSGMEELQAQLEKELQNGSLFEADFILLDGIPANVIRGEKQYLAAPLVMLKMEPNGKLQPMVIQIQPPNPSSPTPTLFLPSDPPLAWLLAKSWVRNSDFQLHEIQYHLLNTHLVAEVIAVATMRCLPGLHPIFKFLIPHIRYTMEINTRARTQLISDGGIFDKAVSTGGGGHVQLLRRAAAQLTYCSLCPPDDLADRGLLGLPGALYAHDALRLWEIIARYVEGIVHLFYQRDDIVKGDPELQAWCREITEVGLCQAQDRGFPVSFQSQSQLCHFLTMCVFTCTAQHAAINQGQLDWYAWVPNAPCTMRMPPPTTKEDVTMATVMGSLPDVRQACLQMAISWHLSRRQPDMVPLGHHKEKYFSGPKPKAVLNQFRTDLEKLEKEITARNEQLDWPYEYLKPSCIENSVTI
# In all, about 580,000 compounds went through this assay and about 6,100 (1.1%) were called active. This list was built around the results that the source calls inconclusive (neither active nor inactive); the mix of calls is not that of the screen. The call rests on the fitted dose curve; in most records, active means well fitted inhibition curve with a large enough effect; inconclusive means small, poorly fitted or top-dose-only effect, or another doubt; inactive means no such curve, though single readings can be large or run the other way. Potencies of inconclusive entries are doubtful fits and often do not repeat.
# Biological target: Polyunsaturated fatty acid lipoxygenase ALOX12 (Homo sapiens) (UniProt P18054)
# Assay: Primary qHTS assay for inhibitors of human arachidonate 12S-lipoxygenase (ALOX12): Round 2
# Conditions: purified 12hLO, xylenol orange hydroperoxide absorbance; series mostly up to 108 µM
# Outline: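 Hydroperoxide product was detected by ferrous iron/xylenol orange as the 573 to 405 nm absorbance ratio. Arachidonic acid at 40 uM (final) was turned over for 30 min at room temperature by 150 nM human 12hLO, pH 7.0 Hepes buffer, after 15 min compound preincubation.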
# Potency means the concentration at half of the fitted maximal effect.
row,Structure (SMILES),Potency
1,CCOc1cc(C2NC(=O)N(C)C(C)=C2C(=O)OC)cc(Br)c1O (stereo not drawn),"inconclusive: 56.2 µM [inhibitor, partial curve, poor fit]"
2,Cc1[nH]c2ccccc2c1C(=O)C(C#N)C(=O)C1CC1 (stereo not drawn),"inconclusive: 1.12 µM [inhibitor, full curve, poor fit]"
3,COc1ccc(-c2cc(OC(=O)c3ccc(F)cc3)c3c(C)oc(C)c3c(=O)c2)cc1OC,"inconclusive: 112 µM [inhibitor, partial curve, poor fit]"
4,CCCCn1c(N)c(N(C)C(=O)Cn2c(C)nc3ccccc32)c(=O)[nH]c1=O,"inconclusive: 89.1 µM [inhibitor, partial curve, poor fit]"
5,C/C(=N\NC(=O)c1ccc(O)cc1)c1ccc2c(c1)Nc1ccccc1S2,"inconclusive: 44.7 µM [inhibitor, partial curve, poor fit]"
6,O=C(Nc1ccccc1N1CCCC1)c1cccnc1,"inconclusive: 0.282 µM [inhibitor, full curve, poor fit]"
7,Cc1cc(C)c(S(=O)(=O)N2CCc3nn(CC(C)C)c(=O)n3CC2)c(C)c1,inactive
8,O=C1NC(=S)N/C1=C\c1ccc(Oc2ccc(C(F)(F)F)cc2[N+](=O)[O-])c(Cl)c1,"inconclusive: 56.2 µM [inhibitor, partial curve, poor fit]"
9,O=C(CSc1ncc(-c2ccc(F)cc2)o1)Nc1cc(F)ccc1F,"inconclusive: 17.8 µM [inhibitor, partial curve]"
10,COc1ccc(Cl)c(-c2cc(C(=O)NCc3ccco3)[nH]n2)c1,"inconclusive: 100 µM [inhibitor, single point]"
11,C[C@@H]1ON(C)[C@H]2C[C@H]3c4cc(-c5cccc(F)c5)ccc4CCN3C(=O)[C@@H]12,"inconclusive: 35.5 µM [inhibitor, partial curve, poor fit]"
12,c1ccc(-c2oc3ncnc(NCCN4CCOCC4)c3c2-c2ccccc2)cc1,inactive
13,COc1ccc(N2CC(C(=O)N3CCC(C(=O)NCCCc4ccccc4)C3)NC2=O)cc1 (stereo not drawn),inactive
14,O=C(NCc1ccc2c(c1)OCO2)c1ccc(NC(=O)c2nsc3ccccc23)cc1,inactive
15,CCCCc1cc(=O)oc2cc(C)cc(OCc3nn[nH]n3)c12,"inconclusive: 7.08 µM [inhibitor, full curve, poor fit]"
16,CCCNC(=O)c1ccc(N2CCC3(CC2)CC(c2ccccc2)=NO3)c(NC(=O)c2ccco2)c1,inactive
17,c1ccc(-c2cc3ccccc3cn2)cc1,inactive
18,COC(=O)C1CCN(C(=O)c2ccc3oc(Cc4ccc(Cl)cc4)nc3c2)CC1,"inconclusive: 56.2 µM [inhibitor, partial curve, poor fit]"
19,Cc1ccc(Cl)cc1OCC(=O)NCCOC(=O)Nc1sc(=S)n(C)c1C,inactive
20,CCOc1ccccc1NC(=O)C1COc2ccccc2O1 (stereo not drawn),inactive
21,Cn1ccc2cc(-c3csc(CN4CC(C)(NC(=O)C5CC5)C4)n3)ccc21,inactive
22,C=C1CCC[C@]2(C)C[C@H]3OC(=O)[C@H](CNCCc4ccccc4OC)C3CC12 (stereo partly drawn),inactive
23,CS(=O)(=O)c1cnc(NCCCn2cccn2)nc1C1CCCNC1 (stereo not drawn),"inconclusive: 17.8 µM [inhibitor, full curve]"

# Part of the list above, with bars between the fields.
row | Structure (SMILES) | Potency
5 | C/C(=N\NC(=O)c1ccc(O)cc1)c1ccc2c(c1)Nc1ccccc1S2 | inconclusive: 44.7 µM [inhibitor, partial curve, poor fit]
6 | O=C(Nc1ccccc1N1CCCC1)c1cccnc1 | inconclusive: 0.282 µM [inhibitor, full curve, poor fit]
7 | Cc1cc(C)c(S(=O)(=O)N2CCc3nn(CC(C)C)c(=O)n3CC2)c(C)c1 | inactive

# The list continues.

row,Structure (SMILES),Potency
1,O=C(O)c1cncc(Br)c1,"inconclusive: 35.5 µM [inhibitor, single point]"
2,O=C1CCN(CCc2ccccc2)CCN1[C@H](COc1ccccc1)c1ccccc1,"inconclusive: 89.1 µM [inhibitor, single point]"
3,COc1ccc(NC(=O)CSc2nnc3scc(-c4ccc(Cl)cc4)n23)cc1,inactive
4,Cc1cc(C)cc(NC(=O)N2CCCC(c3noc(COc4ccccc4F)n3)C2)c1 (stereo not drawn),inactive
5,O=C(COC(=O)/C=C/c1ccc2ccccc2n1)NNC(=O)c1ccc([N+](=O)[O-])cc1,inactive
6,CN1CCC(N(C)C(=O)c2ccc(C(F)(F)F)cc2)CC1,"inconclusive: 0.447 µM [inhibitor, full curve, poor fit]"
7,CCC(C)NC(=O)N1CCC(c2nn(CC(=O)NC)c3c2COCC3)CC1 (stereo not drawn),inactive
8,Cc1ccc(/C=N/Nc2ccc(Cl)c(Cl)c2)cc1,"inconclusive: 3.55 µM [inhibitor, full curve, poor fit]"
9,Cn1nnnc1SCCNCc1ccc(OCc2ccccc2)cc1,"inconclusive: 50.1 µM [inhibitor, partial curve, poor fit]"
10,Cc1nc2ccccc2n1CCN1CCOCC1,"inconclusive: 39.8 µM [inhibitor, partial curve, poor fit]"
11,OC(c1ccccc1)(c1ccccc1)C1CCN(C(=S)NC2CCCC2)CC1,"inconclusive: 50.1 µM [inhibitor, partial curve, poor fit]"
12,Cn1cc(C(C(=O)O)N2CCN(c3ncc(Br)cn3)CC2)c2cc(C(=O)O)ccc21 (stereo not drawn),inactive
13,Cc1ccc(NC(=O)Cn2nnc(-c3ccccc3-n3cnnn3)n2)c(C)c1,"inconclusive: 4.47 µM [inhibitor, full curve, poor fit]"
14,CCOc1ccc(NC(=O)CCS(=O)(=O)c2ccc(Br)s2)cc1,"inconclusive: 28.2 µM [inhibitor, full curve, poor fit]"
15,COc1cccc(-c2cc(NC=O)c3ncc(-c4ccc(OC)c(OC)c4)n3c2)c1,"inconclusive: 56.2 µM [inhibitor, partial curve, poor fit]"
16,CN1C[C@@H](NC(=O)Nc2ccccc2)C[C@H]1c1nc(-c2ccccc2)no1,active: 28.2 µM
17,CSc1nsc(/C=C/Nc2ccc(C)c(C)c2)c1C#N,inactive
18,CCn1cc(C(=O)O)c(=O)c2cc(S(=O)(=O)N(C)C)ccc21,"inconclusive: 12.6 µM [inhibitor, partial curve, poor fit]"
19,CN(C)c1ncc2c(n1)C(C)(C(=O)NCc1cccc(Cl)c1)CCC2 (stereo not drawn),inactive
20,COCCCNc1ncnc2c1sc1nc(-c3ccco3)c3c(c12)CC(C)(C)OC3,"inconclusive: 79.4 µM [inhibitor, partial curve, poor fit]"
21,Cc1nc([N+](=O)[O-])c(Br)n1CC(=O)c1cccc([N+](=O)[O-])c1,"inconclusive: 50.1 µM [inhibitor, partial curve, poor fit]"
22,Cc1ccc(-n2c3nc(=O)[nH]c(=O)c-3cc3cc([N+](=O)[O-])ccc32)cc1C,"inconclusive: 44.7 µM [inhibitor, partial curve, poor fit]"
23,COc1ccc(Cn2ccnc2SCC(=O)Nc2cccc(NC(C)=O)c2)cc1,"inconclusive: 100 µM [inhibitor, single point]"

row,Structure (SMILES),Potency
1,CC(C)CNC(=O)c1ccc(C2SCC(=O)N2Cc2ccccc2)cc1 (stereo not drawn),"inconclusive: 126 µM [inhibitor, single point]"
2,Cc1cccc(-c2nc(CCNC(=O)c3ccccc3Br)cs2)c1,"inconclusive: 112 µM [inhibitor, partial curve, poor fit]"
3,FC(F)(F)c1cccc(-c2cc3nc(NCCOc4ccccc4)ccn3n2)c1,inactive
4,OCCCNC(=S)Nc1ccc(Br)cc1,inactive
5,O=C(CSc1nnc(Cc2cc(=O)[nH]c(=O)[nH]2)n1-c1ccc(Cl)cc1)NC1CCCC1,"inconclusive: 3.98 µM [inhibitor, full curve, poor fit]"
6,Cc1ccc(-c2cn3c(n2)CO[C@@H](CNCc2ccc(-c4ccccn4)cc2)C3)cc1,"inconclusive: 126 µM [inhibitor, single point]"
7,CCOC(=O)c1sc2nc(C)nc(NC3CCC(O)CC3)c2c1C (stereo not drawn),"inconclusive: 89.1 µM [inhibitor, single point]"
8,Cc1noc(C)c1CNCC1(COc2cnccn2)C[C@@H](O)[C@@H](O)C1 (stereo partly drawn),inactive
9,O=C(COC(=O)CC(c1ccccc1)c1ccccc1)NCc1ccc(Cl)cc1,inactive
10,O=C1C2C3CC(C(Br)C3Br)C2C(=O)N1CC1CCCO1 (stereo not drawn),"inconclusive: 141 µM [inhibitor, single point]"
11,CC(=O)c1c(N2CCN(c3ccc(F)cc3)CC2)nc(=S)n(Cc2ccccc2)c1C,"inconclusive: 44.7 µM [inhibitor, partial curve, poor fit]"
12,Cc1ccc2cccc(NC(=O)C(C)Oc3ccc(C(C)C)cc3)c2n1 (stereo not drawn),inactive
13,O=S(=O)(c1cc(Cl)ccc1Cl)N1CCN(C/C=C/c2ccccc2)CC1,"inconclusive: 7.08 µM [inhibitor, partial curve, poor fit]"
14,CC[C@@]12C(=O)N(c3ccc(OC)cc3)C(=O)N1[C@H](c1ccc(Cl)cc1)[C@@H]1C(=O)N(C3CCCCC3)C(=O)[C@@H]12,inactive
15,Cc1ccc(OCC(=O)NC(=S)Nc2ccc3c4c(cccc24)CC3)cc1,"inconclusive: 50.1 µM [inhibitor, partial curve, poor fit]"
16,O=C(Nc1nonc1NC(=O)c1cccs1)c1cccs1,inactive
17,O=C(/C=C/c1ccncc1)NCCc1ccc(F)cc1,inactive
18,CCNc1c(NC(=O)Nc2ccccc2Cl)c(=O)oc2ccccc12,"inconclusive: 15.8 µM [inhibitor, partial curve, poor fit]"
19,Clc1cccc(CN2CCc3ccccc3C2)c1,"inconclusive: 25.1 µM [inhibitor, full curve]"
20,Cc1c(-c2ccccc2)c(=O)oc2cc(OC(=O)C3CC3)ccc12,inactive
21,O=C(c1cc2nc(-c3ccco3)cc(C(F)(F)F)n2n1)N1CCN(Cc2ccccc2)CC1,inactive
22,Cc1ccc(-c2csc(NC(=O)/C=C/c3ccco3)c2C(=O)O)cc1,"inconclusive: 44.7 µM [inhibitor, partial curve, poor fit]"

# Part of the list above in order of SMILES length, ascending.
row,Structure (SMILES),Potency
1,CC(C)CNC(=O)c1ccc(C2SCC(=O)N2Cc2ccccc2)cc1 (stereo not drawn),"inconclusive: 126 µM [inhibitor, single point]"
12,Cc1ccc2cccc(NC(=O)C(C)Oc3ccc(C(C)C)cc3)c2n1 (stereo not drawn),inactive
21,O=C(c1cc2nc(-c3ccco3)cc(C(F)(F)F)n2n1)N1CCN(Cc2ccccc2)CC1,inactive
